Experimental data: PubChem BioAssay AID1259308 (NCATS, 2017)
Screen: 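Knock-downs that increase output of a recombinant reporter protein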 (primary screen). System: human HEK293 embryonic kidney cells stably expressing firefly luciferase (HEK-CMV-Luc2-Hygro). Reagents: single siRNA against human genes, 0.8 pmol siRNA per well. Time to read-out: 72 h. Measured: 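Reporter luminescence and viable-cell signal on separate replicate plates, given as percent of non-targeting control and median/MAD z-scores, plus per-cell luciferase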. Direction: total luciferase, z-score: higher = more reporter protein produced. Call rule: 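Active when the median/MAD z-score for overall luciferase is greater than 3; a gene was taken forward for validation with new siRNAs if at least two of its three siRNAs passed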. Calls: active = raised luciferase; inactive = no rise.
The deposit covers about 59,000 reagents; this is a random part of them. Over the whole deposit, about 1,510 (2.6%) were called active. 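Calls use total luciferase alone and ignore viability, so some active siRNAs may act by altering cell number.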 Reagents against one gene are numbered here. Further read-outs or replicates are left out here.

| target | reagent | total luciferase, z-score | Call |
| --- | --- | --- | --- |
| PGR (progesterone receptor) | 1 | 0.024 | inactive |
| PGR (progesterone receptor) | 2 | 0.228 | inactive |
| PGR (progesterone receptor) | 3 | 0.617 | inactive |
| SLU7 (spliceosome associated SLU7) | 1 | 0.123 | inactive |
| SLU7 (spliceosome associated SLU7) | 2 | 0.49 | inactive |
| SLU7 (spliceosome associated SLU7) | 3 | 1.36 | inactive |
| UTY | 1 | -0.431 | inactive |
| UTY | 2 | -1.11 | inactive |
| UTY | 3 | -0.0805 | inactive |
| TACSTD2 (tumor associated calcium signal transducer 2) | 1 | 1.8 | inactive |
| TACSTD2 (tumor associated calcium signal transducer 2) | 2 | -0.146 | inactive |
| TACSTD2 (tumor associated calcium signal transducer 2) | 3 | 1.92 | inactive |
| PLAAT1 (phospholipase A and acyltransferase 1) | 1 | 1.17 | inactive |
| PLAAT1 (phospholipase A and acyltransferase 1) | 2 | 1.07 | inactive |
| PLAAT1 (phospholipase A and acyltransferase 1) | 3 | 4.37 | active |
| ARHGAP35 (Rho GTPase activating protein 35) | 1 | 0.895 | inactive |
| ARHGAP35 (Rho GTPase activating protein 35) | 2 | 0.372 | inactive |
| ARHGAP35 (Rho GTPase activating protein 35) | 3 | -0.65 | inactive |
| TGFBR3L (transforming growth factor beta receptor 3 like) | 1 | 3.65 | active |
| TGFBR3L (transforming growth factor beta receptor 3 like) | 2 | 0.702 | inactive |
| TGFBR3L (transforming growth factor beta receptor 3 like) | 3 | -0.303 | inactive |
| TMPO (thymopoietin) | 1 | -1.68 | inactive |
| TMPO (thymopoietin) | 2 | -0.144 | inactive |
| TMPO (thymopoietin) | 3 | -0.323 | inactive |
| TRIM43 (tripartite motif containing 43) | 1 | 0.403 | inactive |
| TRIM43 (tripartite motif containing 43) | 2 | -1.2 | inactive |
| TRIM43 (tripartite motif containing 43) | 3 | 0.735 | inactive |

Active calls (from the list above):
| target | reagent | total luciferase, z-score | Call |
| --- | --- | --- | --- |
| PLAAT1 (phospholipase A and acyltransferase 1) | 3 | 4.37 | active |
| TGFBR3L (transforming growth factor beta receptor 3 like) | 1 | 3.65 | active |

Next entries:
| target | reagent | total luciferase, z-score | Call |
| --- | --- | --- | --- |
| DUSP19 (dual specificity phosphatase 19) | 1 | 1.56 | inactive |
| DUSP19 (dual specificity phosphatase 19) | 2 | -0.359 | inactive |
| DUSP19 (dual specificity phosphatase 19) | 3 | 0.368 | inactive |
| ANKAR (ankyrin and armadillo repeat containing) | 1 | 0.386 | inactive |
| ANKAR (ankyrin and armadillo repeat containing) | 2 | 1.02 | inactive |
| ANKAR (ankyrin and armadillo repeat containing) | 3 | -1.2 | inactive |
| CLN6 (CLN6 transmembrane ER protein) | 1 | -0.215 | inactive |
| CLN6 (CLN6 transmembrane ER protein) | 2 | 0.982 | inactive |
| CLN6 (CLN6 transmembrane ER protein) | 3 | 1.1 | inactive |
| PRMT5 (protein arginine methyltransferase 5) | 1 | -0.324 | inactive |
| PRMT5 (protein arginine methyltransferase 5) | 2 | 1.25 | inactive |
| PRMT5 (protein arginine methyltransferase 5) | 3 | 0.789 | inactive |
| TP73 (tumor protein p73) | 1 | 2.98 | inactive |
| TP73 (tumor protein p73) | 2 | -0.0539 | inactive |
| TP73 (tumor protein p73) | 3 | -0.0951 | inactive |
| NNT (nicotinamide nucleotide transhydrogenase) | 1 | 0.933 | inactive |
| NNT (nicotinamide nucleotide transhydrogenase) | 2 | 0.352 | inactive |
| NNT (nicotinamide nucleotide transhydrogenase) | 3 | -0.622 | inactive |
| H1-0 (H1.0 linker histone) | 1 | -0.214 | inactive |
| H1-0 (H1.0 linker histone) | 2 | 0.511 | inactive |
| H1-0 (H1.0 linker histone) | 3 | 1.38 | inactive |
| ERBB2 (erb-b2 receptor tyrosine kinase 2) | 1 | -1.61 | inactive |
| ERBB2 (erb-b2 receptor tyrosine kinase 2) | 2 | -0.267 | inactive |
| ERBB2 (erb-b2 receptor tyrosine kinase 2) | 3 | 0.176 | inactive |
| CPTP (ceramide-1-phosphate transfer protein) | 1 | 0.141 | inactive |
| CPTP (ceramide-1-phosphate transfer protein) | 2 | -0.224 | inactive |
| CPTP (ceramide-1-phosphate transfer protein) | 3 | 0.802 | inactive |
| TLCD5 (TLC domain containing 5) | 1 | -0.436 | inactive |
| TLCD5 (TLC domain containing 5) | 2 | -0.0492 | inactive |
| TLCD5 (TLC domain containing 5) | 3 | -2.13 | inactive |
